# Laboratory results reported in PubChem BioAssay AID504467 (National Center for Advancing Translational Sciences (NCATS), 2011).
# About 7,700 (2.3%) of roughly 330,000 compounds were called active. Inconclusive means that the source gave no clear call. Such entries were picked first, then a sample of the others. Calls come from the whole dose curve; as a rule, active = well fitted inhibition curve with a large enough effect; inconclusive = small, poorly fitted or top-dose-only effect, or effect the other way; inactive = flat fitted curve, though single readings scatter. Where the call is inconclusive, the potency comes from a doubtful curve fit.
# Assay: qHTS screen for small molecules that inhibit ELG1-dependent DNA repair in human embryonic kidney (HEK293T) cells expressing luciferase-tagged ELG1; note: nearly all actives have a fitted effect of over 55% in size
# Conditions: HEK293T ELG1-luciferase reporter, luminescence, 16 h, DNA damage induced by 5-fluorouridine; activity change, negative = inhibition: at 46.1 µM (top of the series)
# Summary of the method: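 Luminescence from the luciferase reporter, measured 30 min after ONE-Glo reagent at room temperature, was the read-out. Beforehand, 2,000 cells per well were exposed for 16 hr at 37 °C to 5-fluorouridine together with compound or vehicle.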
# % is set by controls: 0 for no effect and ±100 for the full control effect; potency is the fitted concentration of half-maximal effect.
SMILES,"activity change, negative = inhibition",Potency
COC(=O)C1C(=O)C2=C(CC1C)NC(=O)CC2c1cccc(C)c1 (centres undefined),inactive: -3.62%,–
O=C(c1ccc([N+](=O)[O-])o1)N1CCN(c2nc3c(F)cc(F)cc3s2)CC1,–,"inconclusive: 18.3 µM [inhibitor, single point]"
CCC(=O)c1ccc(OCC(=O)OCC(=O)NCC2CCCCC2)cc1,inactive: 21.7%,–
CC(NC(=O)c1sc2ccccc2c1Cl)C1CCCO1 (centres undefined),–,"inconclusive: 18.4 µM [activator, partial curve]"
CCC(=O)Nc1cccc(-c2ccc(N3CCC(C)CC3)nn2)c1,–,"inconclusive: 0.73 µM [activator, full curve]"
COc1cccc(C(=O)Nc2cc3c(cc2Br)OCCCO3)c1,–,"inconclusive: 9.2 µM [activator, partial curve]"
Fc1ccc2nc(Nc3nc4cc5c(cc4s3)OCO5)sc2c1,–,"inconclusive: 18.4 µM [activator, partial curve]"
COc1ccccc1CC(=O)Nc1cc(C)ccn1,–,"inconclusive: 11.2 µM [activator, partial curve, poor fit]"
O=C(c1cccc(S(=O)(=O)N2CCc3ccccc32)c1)N1CCOCC1,inactive: -0.0021%,–
Cc1onc(-c2c(F)cccc2Cl)c1C(=O)Nc1cccc(Cn2cccn2)c1,–,"inconclusive: 9.2 µM [inhibitor, single point]"
Cc1ccc2nc(NC(=O)c3ccc(Cl)s3)sc2c1,–,"inconclusive: 4.61 µM [activator, partial curve]"
COc1ccc(Cc2nnc(SCC(=O)Nc3ccc(C)cc3)n(N)c2=O)cc1,–,"inconclusive: 16.4 µM [activator, single point]"
CN(C)c1ccc(/C=N/NC(=O)C(=O)/C=C2\NC3(CCCC3)Cc3ccccc32)cc1,–,active: 11.6 µM
Cc1ccccc1N/N=C1\CCCNC1=O,–,"inconclusive: 8.2 µM [activator, partial curve]"
Cc1ccc(C(c2nnnn2CS(=O)(=O)c2ccc(C)cc2)N2CCCC2)cc1 (centres undefined),–,"inconclusive: 23.1 µM [activator, partial curve, poor fit]"
CC(OC(=O)c1ccc2noc(-c3ccccc3)c2c1)C(N)=O (centres undefined),–,"inconclusive: 1.16 µM [activator, single point]"
Cc1ccc2oc(C(=O)Nc3nnc(CC(C)C)s3)c(C)c2c1,–,"inconclusive: 18.3 µM [activator, single point]"
Cc1ncccc1C(=O)N1CCCC(C(=O)c2ccc3c4c(cccc24)CC3)C1 (centres undefined),–,"inconclusive: 18.3 µM [inhibitor, single point]"
Cc1ccc(SC2=C(C(=O)O)CCCC2)cc1,inactive: -0.851%,–

# Arranged by length of the SMILES (largest number first): part of the list above
SMILES,"activity change, negative = inhibition",Potency
COc1ccc(Cc2nnc(SCC(=O)Nc3ccc(C)cc3)n(N)c2=O)cc1,–,"inconclusive: 16.4 µM [activator, single point]"
Cc1ccc2oc(C(=O)Nc3nnc(CC(C)C)s3)c(C)c2c1,–,"inconclusive: 18.3 µM [activator, single point]"
Cc1ccc(SC2=C(C(=O)O)CCCC2)cc1,inactive: -0.851%,–
